# Screen size: about 320,000 compounds; about 480 (0.15%) were called active. Inconclusive results, whose numbers are uncertain, are shown with a selection of clear calls. No stated cut-off is given here; in the data, active means inhibition above about 26% (passing the limit was not always enough); inconclusive means no clear call, values can overlap the other calls.
# Sequences of proteins named here, by UniProt entry; tags and fusion partners are left off. A change or cut given only in a name is not applied to a line headed by its entry.
# UniProt O15379: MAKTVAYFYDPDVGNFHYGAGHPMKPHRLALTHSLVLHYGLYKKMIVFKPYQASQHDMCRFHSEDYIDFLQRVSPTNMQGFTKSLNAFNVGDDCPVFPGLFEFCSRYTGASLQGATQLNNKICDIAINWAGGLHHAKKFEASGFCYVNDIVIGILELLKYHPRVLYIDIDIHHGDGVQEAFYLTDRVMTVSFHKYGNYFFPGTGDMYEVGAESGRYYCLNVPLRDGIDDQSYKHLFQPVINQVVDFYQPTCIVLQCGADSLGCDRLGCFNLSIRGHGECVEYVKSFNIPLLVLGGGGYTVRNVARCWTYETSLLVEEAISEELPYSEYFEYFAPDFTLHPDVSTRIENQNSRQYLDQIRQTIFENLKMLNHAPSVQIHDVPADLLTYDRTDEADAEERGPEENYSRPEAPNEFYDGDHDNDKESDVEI
# Target: Histone deacetylase 3 (Homo sapiens) (UniProt O15379)
# Experiment: HDAC3 deacetylase inhibitors, primary screen, biochemical, fluorescence, cell-free homogeneous (AID 2718)
# Settings: recombinant HDAC3, fluorogenic peptide/trypsin coupled, at 8.3 µM, hits give high values
row,Structure (SMILES),inhibition
1,CCN(CC)C(=O)Cn1cc(/C=C(\C#N)C(=O)N2CCN(c3ccccc3)CC2)c2ccccc21,inconclusive: 14.5%
2,CC(C)c1ccc(CNC(=O)CCc2ccccc2)cc1,inactive: 7.65%
3,CC(C)(C)C(=O)/C=c1\[nH]c(=O)/c(=C\c2ccc(F)cc2)s1,inconclusive: 14.2%
4,Cc1cc(C)n(-c2nc(C)nc3sc4c(c23)CCC(C)C4)n1 (centres undefined),inconclusive: 18.7%
5,O=C(N/N=C/c1ccccc1[N+](=O)[O-])c1ccc2nc[nH]c2c1,active: 96.3%
6,CC1=C(C(=O)OCc2ccccc2)C(c2ccccc2OS(=O)(=O)c2ccc(C)cc2)NC(=O)N1CCCC(=O)O (centres undefined),inconclusive: 16.4%
7,COCC(=O)N(CCc1ccc(OC)c(OC)c1)Cc1cc2cc(C)ccc2nc1Cl,inconclusive: 18.9%
8,Cc1cc(NC(=O)C2CCN(C(=O)c3ccco3)CC2)ccc1Br,inconclusive: 9.38%
9,CC(=O)c1ccc(OC(=O)c2ccc(Br)o2)cc1,active: 67%
10,CCOC(CNC(=O)c1cc(C)nn1-c1ccccc1)OCC,inconclusive: 14.4%
11,O=C(CNc1cccc(S(=O)(=O)N2CCOCC2)c1)Nc1cccc(Br)c1,inconclusive: 17.9%
12,O=C(CSc1nnnn1Cc1ccccc1)NCC(=O)c1ccccc1,inconclusive: 18.3%
13,CCCCCCCCCC[N+](C)(C)CC/C=C1/c2ccccc2Sc2ccc(Cl)cc21,active: 34.6%
14,COc1ccccc1C(=O)Nc1ccc2c(c1)nc(CN1CCN(C(C)=O)CC1)n2C,inconclusive: 17%
15,O=C(O)c1ccc2c(c1)S(=O)(=O)N=C1CCCCCN12,inconclusive: 15.9%
16,COC(=O)c1ccc(N2CCN(c3ccccc3)CC2)nc1,inactive: -2.86%
17,O=C1C(=O)N(CCN2CCOCC2)C(c2ccccn2)/C1=C(/O)c1ccc(F)cc1 (centres undefined),inconclusive: 15.7%
18,CC1(C)C(=O)OC(c2ccccc2)C(C)(C)C1=O (centres undefined),inconclusive: 25.8%
19,O=c1cc(-c2ccc(O)c(O)c2)oc2cc(O)c([C@@H]3O[C@H](CO)[C@@H](O)[C@H](O)[C@H]3O)c(O)c12,inactive: 7.16%
20,NC(=O)C1CCN(c2nc(-c3ccc4ccccc4c3)cs2)CC1,inactive: 2.2%
21,C=CCn1c(N/N=C/c2ccc(O)cc2)nc2ccccc2c1=O,inconclusive: 24%
22,O=C(CC(O)(C(F)(F)F)C(F)(F)F)Nc1ccc(Cl)c(Cl)c1,inconclusive: 22.2%
23,Cc1cc(C)c(OCC(=O)OCC(=O)NC2CCC(C)CC2)c(C)c1 (centres undefined),inconclusive: 16.3%
24,C#CCOCCOCCOCCNc1nc(N2CCN(C(=O)CCCCCCCCCCNC(=O)[C@H](CO)n3cc(CCCCCN)nn3)CC2)nc(N2CCN(C(=O)CCCCCCCCCCNC(=O)[C@H](CCCN=C(N)N)n3cc(C[C@@H](C)CC)nn3)CC2)n1,inconclusive: 55.3%

# Some values from the entries so far.
# Entry of CC1=C(C(=O)OCc2ccccc2)C(c2ccccc2OS(=O)(=O)c2ccc(C)cc2)NC(=O)N1CCCC(=O)O (centres undefined) under inhibition: inconclusive: 16.4%
# Entry of COc1ccccc1C(=O)Nc1ccc2c(c1)nc(CN1CCN(C(C)=O)CC1)n2C under inhibition: inconclusive: 17%

# Reference: PubChem BioAssay AID2718 (Broad Institute, 2010)
